Reference: PubChem BioAssay AID1508597 (Cure First, 2020)
Test: 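Survival screen with siRNA in ovarian cancer cells derived from patients, with or without rucaparib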 (primary screen). Cells: human ovarian carcinoma lines grown from tumours: OCI-P5x (papillary serous) and OCI-C5x (clear cell). Knock-down reagent: siRNA pool against human genes, 1.25 pmol siRNA per well. Duration: 72 h or 96 h, depending on the cell culture. Conditions: rucaparib 20 µM (about IC30) or vehicle, present until read-out. Rucaparib or vehicle: Rucaparib. Cell line: OCI-P5x (serous). Detection: 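Luminescent ATP-based viability assay read 72 or 96 h after transfection, depending on culture, given as normalised percent viability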. Scale: viability, normalised: higher = more viable cells remaining. Active means: 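a well counts as a hit if its normalised viability is under 80 percent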. Meaning of the calls: active = viability under 80%; inactive = viability 80% or more.
This is a random part of the about 2,100 reagents, under one of the conditions tested. 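Calls flag viability under 80% in either arm, not effects specific to rucaparib; the reference for percent is not stated.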 Unmarked entries are inactive. Not given: the 100% reference.

The opening 4 records, to show the layout:
Target gene | technical replicate | viability, normalised (%)
ACVR1B | 1 | 131
ACVR1B | 2 | 115
ACVR1B | 3 | 145
SUMO1 | 1 | 62.9 (active)

Results, repeating the preview:
Target gene | technical replicate | viability, normalised (%)
ACVR1B | 1 | 131
ACVR1B | 2 | 115
ACVR1B | 3 | 145
SUMO1 | 1 | 62.9 (active)
SUMO1 | 2 | 66.1 (active)
SUMO1 | 3 | 48.6 (active)
NAP1L3 | 1 | 29 (active)
NAP1L3 | 2 | 37.1 (active)
NAP1L3 | 3 | 47.6 (active)
NDUFA10 | 1 | 128
NDUFA10 | 2 | 126
NDUFA10 | 3 | 114
MAP2K1 | 1 | 70.4 (active)
MAP2K1 | 2 | 103
MAP2K1 | 3 | 75.7 (active)
CASP3 | 1 | 85.9
CASP3 | 2 | 96.2
CASP3 | 3 | 97.8
MYLK2 | 1 | 85.9
MYLK2 | 2 | 87.6
MYLK2 | 3 | 78.5 (active)
HNRNPAB | 1 | 68.4 (active)
HNRNPAB | 2 | 81.5
HNRNPAB | 3 | 68.5 (active)
OGA | 1 | 47.4 (active)
OGA | 2 | 33.1 (active)
OGA | 3 | 46.5 (active)
WNK2 | 1 | 69.7 (active)
WNK2 | 2 | 76.5 (active)
WNK2 | 3 | 77 (active)
PHF20 | 1 | 40.9 (active)
PHF20 | 2 | 48.2 (active)
PHF20 | 3 | 41.2 (active)
GINS1 | 1 | 67.4 (active)
GINS1 | 2 | 55.7 (active)
GINS1 | 3 | 73.3 (active)
SOX21 | 1 | 25 (active)
SOX21 | 2 | 19.7 (active)
SOX21 | 3 | 21.5 (active)
